This is an account of results in the supplement of paper PMC11150407.

One may read the cell viability as a read-out of living cells in per cent, often relative to untreated cells.

About 45 (2%) of roughly 3,000 compounds showed an effect of 50% or more. The list shows a part of the results.

The subject of this test is MOLM1 and UCSD/AML1 (averaged). The experiment in a line: cell viability relative to DMSO control (POC); higher = less growth inhibition. The settings on record: 1 µM; 72 h. How it is done:
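Primary viability screen in the 3q26 EVI1-high AML cell lines MOLM1 and UCSD/AML1, compounds at 1 uM for 72 h. ATP CellTiter-Glo read-out given as percent viable over DMSO control (POC), averaged over duplicates. This mapping covers the TimTec NDL-3000 natural derivative library, whose compounds are identified by TimTec catalogue codes (ST...).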
Turning to `NCCc1c[nH]c2ccc(Br)cc12`, the cell viability is 93.3%. The figure for `Oc1ccc(CC2CC3CCN2CC3)cc1O` (configuration not stated) is 102%; for `CC(C)CC(=O)OCC1CCCN2CCCCC12` (configuration not stated) it is 103%. In the case of `Cc1ccc2c(CN3CCNCC3)cc(=O)oc2c1` it was 87.9%; in that of `C/C=C1\C[N+]2(C)CCC34c5ccccc5NC3C(/C=N/Nc3ccccc3)C1CC42` (configuration not stated), 102%. Take `COC(=O)C(N)CCCN=C(N)N[N+](=O)[O-]` (configuration not stated): the cell viability turned out to be 102%. The figure for `Cc1c(N=Nc2c(O)[nH]c(=O)[nH]c2=O)cccc1[N+](=O)[O-]` is 105%; for `COc1cc(C2C(C#N)=C(N)Oc3c2c(=O)oc2ccccc32)cc(OC)c1OC` (configuration not stated) it is 100%. The figure for `NCCc1cn2ccccc2n1` is 103%; for `C[N+]1(C)CCCC1c1cc(Br)cnc1N` (configuration not stated) it is 101%. As to `Cc1cccc(N2C(=O)NC(=O)/C(=C\c3cn(C)c4ccccc34)C2=O)c1`, the cell viability stood at 96.3%. As to `CCOC(=O)C1=C(N)Oc2c(c(=O)oc3ccccc23)C1c1ccccc1Br` (configuration not stated), the cell viability stood at 105%. The figure for `CC12CCC3C(CCC4C/C(=N/O)CCC43C)C1CCC2O` (configuration not stated) is 92.4%. The figure for `COc1cccc(N2C(=O)NC(=O)/C(=C\c3cc(OC)c(O)c(OC)c3)C2=O)c1` is 92.6%; for `CC(C)(C)C(=O)OCC1CCCN2CCCCC12` (configuration not stated) it is 97.6%. In the case of `C[N+]1(CCOCC2CCC[N+]3(C)CCCCC23)CCCCC1` (configuration not stated) it was 97.9%; in that of `CCn1cc(C(=O)O)c(=O)c2cc3c(cc21)OCO3`, 101%; in that of `CC(C)CCCn1c(O)c(C(c2ccccn2)c2c(O)n(CCCC(C)C)c(=O)[nH]c2=O)c(=O)[nH]c1=O`, 95.1%. For `COc1cc(C(=O)ON=C2CC3CCC(C2)N3C)cc(OC)c1OC`, the cell viability was 91.7%. The figure for `COc1cc(OC)c(OC)cc1C=C(C#N)C#N` is 96.2%; for `O=C(O)C1C2CC(Sc3ccccc3[N+](=O)[O-])C(Cl)C2c2cc(Cl)cc3c2N1CC1CC=CC31` (configuration not stated) it is 98.9%; for `CN1CC(C#N)C2(O)c3ccccc3CCC2C1` (configuration not stated) it is 104%.

In the case of `CC(C)C(=O)OCC1CCCN2CCCCC12` (configuration not stated), the cell viability worked out at 105%. In the case of `O=C1NC(=O)N(Cc2ccccc2)C(=O)/C1=C/c1cn(Cc2ccccc2)c2ccccc12` it was 95.4%. The figure for `NCCc1c[nH]c2cccc(OC(=O)c3ccc(C(=O)O)cc3)c12` is 92.9%. The figure for `COC(=O)CC(NC(=S)N1C[C@@H]2C[C@@H](C1)c1cccc(=O)n1C2)C(=O)OC` (some centres not stated) is 92.1%; for `O=c1ccn(C(=[Se])n2ccc(=O)[nH]c2=O)c(=O)[nH]1` it is 89.6%; for `O=C1NC(=O)C(=Cc2ccc3c(c2)OCO3)C(=O)N1` it is 86%. Take `COC(=O)CC(c1ccccc1)c1c(O)c2ccccc2oc1=O` (configuration not stated): the cell viability amounted to 95%. As for `COc1ccc(C2C(C#N)=C(N)Oc3c2c(=O)oc2ccccc32)cc1CCc1ccc(Cl)cc1` (configuration not stated), the cell viability was found to be 101%. In the case of `Cc1ccc(C(c2c(O)c3ccccc3oc2=O)c2c(O)c3ccccc3oc2=O)cc1` it was 102%. The figure for `COc1cc(CC(C)=O)ccc1O` is 95.8%.

As for `OC12CCCCC1C(Cc1ccccc1)NCC2` (configuration not stated), the cell viability amounted to 104%.

As for `O=C(O)CCCCCCCCCCCCCCCO`, the cell viability worked out at 109%.

For the compound `C[N+]1(Cc2ccccc2)CCCC1c1ccc(N)nc1` (configuration not stated), the cell viability worked out at 109%. In the case of `O=C1NC(=O)C(=Cc2ccc([N+](=O)[O-])cc2)C(=O)N1` it was 100%; in that of `COCCOC(=O)c1c(C)n(Cc2ccccc2Cl)c2ccc(O)cc12`, 106%; in that of `CCC(COC(=O)c1cc(OC)c(OC)c(OC)c1)(c1ccccc1)N(C)C` (configuration not stated), 85.1%.

On to `COCCOC(=O)c1c(C)n(Cc2ccccc2)c2ccc(O)cc12`, for which the cell viability turned out to be 96.9%. Take `O.O.O.O.O.O.O.O=S(=O)(O)O.OCCN1CCCCC1c1cccnc1.[Co]` (configuration not stated): the cell viability amounted to 106%. In the case of `COc1ccc(CCN)cc1.Cc1ccc(-c2cc(C(=O)O)c3ccccc3n2)cc1` it was 101%. In the case of `CC12CCC3C(CC=C4CC(OC5CCCCO5)CCC43C)C1CCC2=O` (configuration not stated) it was 90.4%; in that of `COc1ccc2c(CN3CC=C(c4ccccc4)CC3)cc(=O)oc2c1`, 102%. Take `CCOC(=O)c1c(CN2CCN(c3ccccc3C)CC2)n(Cc2ccccc2)c2cc(Br)c(O)cc12`: the cell viability is 94.5%. The figure for `Cc1cc2c(c(O)c1-c1c(C)cc3c(c1O)C(C=C1C(=O)NC(=O)NC1=O)C(=O)C(O)=C3C(C)C)C(C=C1C(=O)NC(=O)NC1=O)C(=O)C(O)=C2C(C)C` (configuration not stated) is 96.2%; for `CCOc1ccc(C(=O)Nc2ccc(C#N)c(Cl)c2)cc1OCC` it is 101%. `COC(C)C(O)(C(=O)OCC1=CC[N+]2(C)CCC(O)C12)C(C)C` (configuration not stated): the cell viability was determined as 107%. For the compound `O=c1c2ccccc2nc(CSc2ncnc3nc[nH]c23)n1-c1ccc(Cl)c(Cl)c1`, the cell viability turned out to be 99.5%. In the case of `CC(O)CN1CCCCC1c1cccnc1.O.O.O.O.O.O.O=[N+]([O-])O.O=[N+]([O-])O.[Co]` (configuration not stated) it was 97.4%; in that of `C=CCNC(=S)OCCN1CCCCC1c1cccnc1.O.O.[Cl][Cu][Cl]` (configuration not stated), 109%.

Regarding `Cc1ccc2c(c1)c1c3n2CCN([N+](=O)[O-])C3CCC1` (configuration not stated), the cell viability worked out at 101%. The figure for `COc1ccc(C2C(C#N)=C(N)Oc3c2c(=O)oc2ccccc32)cc1Cn1nc([N+](=O)[O-])c(Br)c1C` (configuration not stated) is 91.9%. The figure for `OCC(O)[C@H]1O[C@@H]2OC(C(Cl)(Cl)Cl)OC2C1O` (some centres not stated) is 100%; for `O=[N+]([O-])OCCC12C(I)C3C4CC5C3C1C(I)C5C42` (configuration not stated) it is 70.3%. The figure for `O=C1CCC(=O)N1C1CCCN2CCCCC12` (configuration not stated) is 103%; for `CCOC(=O)C1=C(N)Oc2c(c(=O)oc3ccccc23)C1c1ccc(Br)cc1` (configuration not stated) it is 93%; for `Cc1[nH]c2ccc(I)cc2c1CCN` it is 97.8%. Turning to `N#CCCOCCC#CCN1CCCCC1c1cccnc1` (configuration not stated), the cell viability came to 105%. For the compound `CNCC(O)c1ccc(O)cc1` (configuration not stated), the cell viability is 102%.

On to `COC(=O)c1c(C)n(Cc2ccc3c(c2)OCO3)c2ccc(O)cc12`, for which the cell viability turned out to be 93.4%. The figure for `CN1C2CC(OC(=O)C(CO)c3ccccc3)CC1C1OC12` (configuration not stated) is 102%; for `N#CC1=C(N)Oc2c(c(=O)oc3ccccc23)C1c1ccc(F)cc1` (configuration not stated) it is 91.4%.
